Data as given in paper doi:10.1101/2020.10.06.327809 (bioRxiv, 2020).

T1: SepF-HA (HA-tagged SepF, Hvo_0392, of Haloferax volcanii strain HTQ236) (Haloferax volcanii) (UniProt D4H018)
T1 sequence: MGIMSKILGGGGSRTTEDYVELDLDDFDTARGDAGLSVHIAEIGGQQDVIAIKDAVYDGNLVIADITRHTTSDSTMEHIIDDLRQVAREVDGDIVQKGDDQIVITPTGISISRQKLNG

B1: archaeosortase A (ArtA) of Haloferax volcanii (protein, UniProt D4GUZ4 1-303)
chain: MPGLLSDILAWVVIGTFVAGAVANGRDRELGRRVMTAAWVLFALFWLQLIPHFTLVHKSYIEGLLTIAAVPASLYAGWLLYNGRDTLFVLSRAVAAMGVVYLPFETIPAFTLLGATVPAPRGVLMETVAAQTRFLIESLGYTPQMIVGDQGYLNTFLWMQGSHRLEISVVLACTGLGSIAIFAGLIAAVDAPMGRKLRGLAIAVPIIYALNLLRTTFIAISVGKQYFHLFVDEVLFLFGSSDPYMVSFFISDRIISQALAVVALVGVTYLVVHEVPELLTVIEDVLYMVTGDEYDLRNELGLD

Target: T1, SepF-HA (HA-tagged SepF, Hvo_0392, of Haloferax volcanii strain HTQ236) (Haloferax volcanii)
Assay: affinity purification with mass spectrometry

Row | binding | Molecule
1 | no binding | PssA of Haloferax volcanii
2 | no binding | PssD of Haloferax volcanii
3 | no binding | B1

No constants are given. Whether binding was seen depends on the method and setting. Binding seen in cells or lysates may run through a third protein. Here binding means that the protein was enriched with, or labelled near, the bait; the list need not be complete. No binding means not detected with the bait. Tags and fused reporters may be left off the sequences shown.
